Data taken from the supplement of paper PMC10849652.
This is one part of the list.

Amino acid sequences for entries named in this document (tags omitted). A change or cut given only in a name is not applied to a line headed by its entry.
UniProt P34810: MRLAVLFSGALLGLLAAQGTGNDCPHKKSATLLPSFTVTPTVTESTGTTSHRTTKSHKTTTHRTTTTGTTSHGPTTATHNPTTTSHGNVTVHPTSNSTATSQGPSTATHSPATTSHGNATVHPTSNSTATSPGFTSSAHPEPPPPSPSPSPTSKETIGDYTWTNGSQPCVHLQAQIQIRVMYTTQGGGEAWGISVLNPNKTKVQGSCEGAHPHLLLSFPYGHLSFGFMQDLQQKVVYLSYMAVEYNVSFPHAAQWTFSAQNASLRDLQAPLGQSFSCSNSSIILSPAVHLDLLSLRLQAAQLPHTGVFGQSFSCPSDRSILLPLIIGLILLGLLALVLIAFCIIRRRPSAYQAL
UniProt O43303: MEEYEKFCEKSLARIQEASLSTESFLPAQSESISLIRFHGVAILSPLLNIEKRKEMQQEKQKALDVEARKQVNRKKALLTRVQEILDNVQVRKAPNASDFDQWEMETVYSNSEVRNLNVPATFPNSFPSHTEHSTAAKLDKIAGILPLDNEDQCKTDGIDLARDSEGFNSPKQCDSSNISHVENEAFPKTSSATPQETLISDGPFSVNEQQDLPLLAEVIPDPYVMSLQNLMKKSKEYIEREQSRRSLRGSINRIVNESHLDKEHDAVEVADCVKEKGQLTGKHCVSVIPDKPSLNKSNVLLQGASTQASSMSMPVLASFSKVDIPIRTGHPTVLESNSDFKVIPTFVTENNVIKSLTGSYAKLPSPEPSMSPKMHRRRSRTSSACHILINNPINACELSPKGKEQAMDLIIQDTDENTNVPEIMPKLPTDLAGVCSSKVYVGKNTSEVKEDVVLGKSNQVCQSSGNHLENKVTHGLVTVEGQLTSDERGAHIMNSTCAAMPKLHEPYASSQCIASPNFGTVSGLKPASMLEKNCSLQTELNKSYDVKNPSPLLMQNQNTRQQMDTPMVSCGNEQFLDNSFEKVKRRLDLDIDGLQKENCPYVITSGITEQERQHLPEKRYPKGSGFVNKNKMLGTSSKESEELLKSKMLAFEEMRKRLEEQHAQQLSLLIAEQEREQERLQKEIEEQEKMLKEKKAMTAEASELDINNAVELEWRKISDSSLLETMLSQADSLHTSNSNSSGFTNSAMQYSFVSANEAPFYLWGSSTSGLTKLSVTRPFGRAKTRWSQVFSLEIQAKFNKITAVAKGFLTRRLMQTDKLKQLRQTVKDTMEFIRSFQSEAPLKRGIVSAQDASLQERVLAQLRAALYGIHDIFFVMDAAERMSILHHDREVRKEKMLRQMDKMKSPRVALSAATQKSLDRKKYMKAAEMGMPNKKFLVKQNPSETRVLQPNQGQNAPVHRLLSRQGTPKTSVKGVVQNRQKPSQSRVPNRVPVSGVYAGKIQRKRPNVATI
UniProt Q96A19: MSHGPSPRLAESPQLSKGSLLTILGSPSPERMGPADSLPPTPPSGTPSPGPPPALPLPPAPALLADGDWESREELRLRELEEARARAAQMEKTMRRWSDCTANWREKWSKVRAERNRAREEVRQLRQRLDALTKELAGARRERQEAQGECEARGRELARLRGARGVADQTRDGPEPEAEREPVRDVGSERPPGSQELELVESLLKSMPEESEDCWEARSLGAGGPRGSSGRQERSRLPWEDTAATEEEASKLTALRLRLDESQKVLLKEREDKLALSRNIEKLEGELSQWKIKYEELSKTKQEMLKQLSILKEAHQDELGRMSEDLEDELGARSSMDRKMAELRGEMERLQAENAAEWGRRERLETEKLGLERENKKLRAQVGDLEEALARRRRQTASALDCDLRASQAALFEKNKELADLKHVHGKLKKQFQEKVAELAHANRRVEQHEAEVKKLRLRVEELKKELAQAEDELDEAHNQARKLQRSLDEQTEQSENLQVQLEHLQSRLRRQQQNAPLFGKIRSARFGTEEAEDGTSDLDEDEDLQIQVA
UniProt Q6YHK3: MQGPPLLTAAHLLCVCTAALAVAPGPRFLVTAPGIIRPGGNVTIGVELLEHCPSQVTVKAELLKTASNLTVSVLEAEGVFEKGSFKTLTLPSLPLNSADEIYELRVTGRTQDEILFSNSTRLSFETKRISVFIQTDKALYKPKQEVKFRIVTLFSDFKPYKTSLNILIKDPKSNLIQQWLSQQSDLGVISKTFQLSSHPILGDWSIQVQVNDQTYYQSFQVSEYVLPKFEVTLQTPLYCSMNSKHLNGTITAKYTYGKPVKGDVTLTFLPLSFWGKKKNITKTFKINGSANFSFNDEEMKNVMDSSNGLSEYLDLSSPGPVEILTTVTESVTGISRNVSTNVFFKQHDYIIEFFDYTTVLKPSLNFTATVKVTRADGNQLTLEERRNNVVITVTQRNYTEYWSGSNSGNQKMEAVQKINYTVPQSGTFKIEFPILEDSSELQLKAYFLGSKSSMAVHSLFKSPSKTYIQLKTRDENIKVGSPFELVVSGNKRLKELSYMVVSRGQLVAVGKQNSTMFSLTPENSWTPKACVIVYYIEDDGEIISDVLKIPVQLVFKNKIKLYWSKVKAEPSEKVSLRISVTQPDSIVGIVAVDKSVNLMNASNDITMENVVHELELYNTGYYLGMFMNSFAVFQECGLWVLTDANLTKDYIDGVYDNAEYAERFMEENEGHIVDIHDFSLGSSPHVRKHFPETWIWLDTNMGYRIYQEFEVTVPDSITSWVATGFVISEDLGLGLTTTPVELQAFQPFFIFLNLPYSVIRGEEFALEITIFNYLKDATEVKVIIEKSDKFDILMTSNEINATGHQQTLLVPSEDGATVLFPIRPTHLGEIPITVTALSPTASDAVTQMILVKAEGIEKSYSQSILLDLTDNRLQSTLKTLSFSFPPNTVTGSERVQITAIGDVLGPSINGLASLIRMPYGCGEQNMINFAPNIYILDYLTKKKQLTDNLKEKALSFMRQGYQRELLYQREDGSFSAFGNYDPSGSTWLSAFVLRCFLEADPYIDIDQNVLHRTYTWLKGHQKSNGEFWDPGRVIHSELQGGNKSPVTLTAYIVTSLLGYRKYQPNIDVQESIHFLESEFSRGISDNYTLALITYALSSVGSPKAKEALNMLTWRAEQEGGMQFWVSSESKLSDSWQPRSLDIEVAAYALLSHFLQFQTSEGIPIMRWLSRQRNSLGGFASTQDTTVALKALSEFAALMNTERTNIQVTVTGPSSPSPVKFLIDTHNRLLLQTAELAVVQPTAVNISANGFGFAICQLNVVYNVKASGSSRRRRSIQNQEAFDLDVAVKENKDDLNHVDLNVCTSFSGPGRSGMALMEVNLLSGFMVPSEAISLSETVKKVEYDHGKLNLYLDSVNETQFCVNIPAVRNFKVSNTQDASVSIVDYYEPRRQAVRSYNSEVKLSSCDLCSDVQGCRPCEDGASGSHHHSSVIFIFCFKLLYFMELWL
UniProt P40259: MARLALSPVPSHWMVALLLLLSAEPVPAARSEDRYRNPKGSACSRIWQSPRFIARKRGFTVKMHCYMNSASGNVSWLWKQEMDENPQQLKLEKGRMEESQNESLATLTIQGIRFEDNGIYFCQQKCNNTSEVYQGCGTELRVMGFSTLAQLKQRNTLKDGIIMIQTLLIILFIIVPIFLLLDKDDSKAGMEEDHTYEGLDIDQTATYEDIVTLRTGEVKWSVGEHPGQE
UniProt Q9P0B6: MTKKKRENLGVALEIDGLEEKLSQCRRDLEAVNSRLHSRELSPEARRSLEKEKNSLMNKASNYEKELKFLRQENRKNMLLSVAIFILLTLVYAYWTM
UniProt Q07108: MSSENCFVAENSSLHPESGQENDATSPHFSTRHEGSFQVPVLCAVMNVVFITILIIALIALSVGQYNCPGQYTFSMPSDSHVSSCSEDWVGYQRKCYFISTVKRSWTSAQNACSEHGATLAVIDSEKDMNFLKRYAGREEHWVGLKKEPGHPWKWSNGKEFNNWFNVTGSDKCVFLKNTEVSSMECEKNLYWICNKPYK
UniProt O00421: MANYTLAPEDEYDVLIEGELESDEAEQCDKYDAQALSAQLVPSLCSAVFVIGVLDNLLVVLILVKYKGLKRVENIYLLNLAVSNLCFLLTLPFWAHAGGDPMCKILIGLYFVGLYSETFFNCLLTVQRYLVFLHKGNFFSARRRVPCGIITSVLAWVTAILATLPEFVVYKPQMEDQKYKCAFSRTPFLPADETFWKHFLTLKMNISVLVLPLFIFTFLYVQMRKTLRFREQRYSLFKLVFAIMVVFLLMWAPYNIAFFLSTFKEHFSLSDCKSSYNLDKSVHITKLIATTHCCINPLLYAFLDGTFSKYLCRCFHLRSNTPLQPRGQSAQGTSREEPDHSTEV
UniProt P16070: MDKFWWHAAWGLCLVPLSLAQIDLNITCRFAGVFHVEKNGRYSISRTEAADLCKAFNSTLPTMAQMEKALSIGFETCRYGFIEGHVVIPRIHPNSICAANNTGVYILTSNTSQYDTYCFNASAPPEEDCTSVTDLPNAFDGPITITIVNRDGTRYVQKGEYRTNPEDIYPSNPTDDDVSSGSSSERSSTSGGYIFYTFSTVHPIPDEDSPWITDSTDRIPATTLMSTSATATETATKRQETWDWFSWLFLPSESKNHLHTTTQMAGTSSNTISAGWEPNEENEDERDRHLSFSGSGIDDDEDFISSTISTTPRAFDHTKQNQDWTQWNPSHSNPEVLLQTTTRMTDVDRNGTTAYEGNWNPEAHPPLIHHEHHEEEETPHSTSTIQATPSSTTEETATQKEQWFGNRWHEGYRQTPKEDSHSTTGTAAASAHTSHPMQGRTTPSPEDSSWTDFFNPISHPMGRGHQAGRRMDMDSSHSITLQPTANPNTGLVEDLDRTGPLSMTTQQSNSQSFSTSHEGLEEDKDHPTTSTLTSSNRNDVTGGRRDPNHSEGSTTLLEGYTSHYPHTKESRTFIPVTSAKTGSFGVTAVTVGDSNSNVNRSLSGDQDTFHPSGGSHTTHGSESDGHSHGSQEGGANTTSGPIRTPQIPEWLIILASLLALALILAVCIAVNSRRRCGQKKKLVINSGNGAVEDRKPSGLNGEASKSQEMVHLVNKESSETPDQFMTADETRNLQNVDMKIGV
UniProt Q96M89: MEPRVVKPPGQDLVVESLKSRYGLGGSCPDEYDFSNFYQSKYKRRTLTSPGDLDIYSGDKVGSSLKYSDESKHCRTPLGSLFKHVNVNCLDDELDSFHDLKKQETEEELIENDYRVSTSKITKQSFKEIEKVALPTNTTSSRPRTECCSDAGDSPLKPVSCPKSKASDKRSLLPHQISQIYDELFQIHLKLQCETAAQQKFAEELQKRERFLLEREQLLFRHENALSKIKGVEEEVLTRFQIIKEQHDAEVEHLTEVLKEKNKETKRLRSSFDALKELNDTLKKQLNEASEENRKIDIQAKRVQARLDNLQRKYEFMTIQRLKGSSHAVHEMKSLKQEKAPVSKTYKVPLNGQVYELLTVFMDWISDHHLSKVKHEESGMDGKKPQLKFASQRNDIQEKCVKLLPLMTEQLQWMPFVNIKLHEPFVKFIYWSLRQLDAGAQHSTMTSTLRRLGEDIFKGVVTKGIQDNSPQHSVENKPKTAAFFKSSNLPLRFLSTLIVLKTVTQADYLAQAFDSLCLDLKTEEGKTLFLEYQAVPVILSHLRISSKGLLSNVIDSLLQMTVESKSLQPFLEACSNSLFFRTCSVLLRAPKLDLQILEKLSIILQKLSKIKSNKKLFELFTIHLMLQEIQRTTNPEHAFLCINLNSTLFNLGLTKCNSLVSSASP
UniProt P15529: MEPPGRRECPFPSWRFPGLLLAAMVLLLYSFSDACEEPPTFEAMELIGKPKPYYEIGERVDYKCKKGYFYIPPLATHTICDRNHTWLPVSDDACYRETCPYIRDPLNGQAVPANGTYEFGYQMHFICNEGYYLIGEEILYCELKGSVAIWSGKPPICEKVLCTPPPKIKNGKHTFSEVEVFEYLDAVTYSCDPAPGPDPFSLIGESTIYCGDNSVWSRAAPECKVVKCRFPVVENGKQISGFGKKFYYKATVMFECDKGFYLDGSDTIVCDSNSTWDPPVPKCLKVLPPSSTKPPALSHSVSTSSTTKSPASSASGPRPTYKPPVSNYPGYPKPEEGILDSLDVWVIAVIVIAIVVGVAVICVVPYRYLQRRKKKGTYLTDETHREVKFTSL
UniProt Q9H0W5: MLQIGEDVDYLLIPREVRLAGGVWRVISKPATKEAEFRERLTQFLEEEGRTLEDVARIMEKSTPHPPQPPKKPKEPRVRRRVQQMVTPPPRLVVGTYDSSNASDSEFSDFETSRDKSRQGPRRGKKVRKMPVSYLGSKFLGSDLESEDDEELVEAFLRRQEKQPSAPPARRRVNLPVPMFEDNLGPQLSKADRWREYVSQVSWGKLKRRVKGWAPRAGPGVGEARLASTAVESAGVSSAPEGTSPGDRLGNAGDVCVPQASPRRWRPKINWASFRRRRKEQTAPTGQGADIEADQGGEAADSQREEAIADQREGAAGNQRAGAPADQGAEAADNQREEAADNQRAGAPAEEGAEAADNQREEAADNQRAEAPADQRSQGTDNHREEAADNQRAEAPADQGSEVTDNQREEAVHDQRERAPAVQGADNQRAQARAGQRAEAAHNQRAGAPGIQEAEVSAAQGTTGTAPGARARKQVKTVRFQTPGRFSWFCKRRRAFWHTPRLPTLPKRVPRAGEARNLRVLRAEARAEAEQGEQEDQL

Tests used:
Assay in all cases: log2 fold change, soluble protein after heating vs DMSO (PISA); higher = thermal stabilisation; K562 lysate, 10 uM; active = over 0.2 and 3.5 SD of the protein, either way, in both replicates (recomputed)
[1] = compound: C[C@H](C1=CC=C(C=C1)C(=O)NC2=C3C=CNC3=NC=C2)N
Method in brief: (§1)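 Following dounce homogenisation of K562 pellets in PBS pH 7.4 with 1 mM MgCl2, crude extract at 1 mg/mL protein was incubated for 30 min with 10 μM compound. Aliquots were then heated for 3 min over 48°C-58°C and pooled, NP-40 was added to 0.5% at 4°C, and soluble protein was recovered as the supernatant at 21,000xg for 90 min. Channel-sum-equalised TMTpro 16plex LC-MS/MS quantified this protein. Each value, from duplicates, is a log-two fold change in thermal stability relative to solvent controls.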

gandotinib = compound: Cc1cc(Nc2cc(CN3CCOCC3)c3nc(C)c(Cc4ccc(Cl)cc4F)n3n2)n[nH]1 [gandotinib]
Method in brief: as §1

[2] = compound: Cc1cccc(CC(=O)N2CCc3c2ccc(-c2cn(C)c4ncnc(N)c24)c3F)n1
Method in brief: as §1

nilotinib = compound: Cc1cn(-c2cc(NC(=O)c3ccc(C)c(Nc4nccc(-c5cccnc5)n4)c3)cc(C(F)(F)F)c2)cn1 [nilotinib]
Method in brief: as §1

[3] = compound: Cc1nc(Nc2n[nH]c3c2CN(C(=O)N[C@H](CN(C)C)c2ccccc2)C3(C)C)c2sccc2n1
Method in brief: as §1

[4] = compound: Cc1ncc(-c2ccnc(Nc3ccc(S(C)(=O)=O)cc3)n2)n1C(C)C
Method in brief: as §1

tipifarnib = compound: Cn1cncc1[C@@](N)(c1ccc(Cl)cc1)c1ccc2c(c1)c(-c1cccc(Cl)c1)cc(=O)n2C [tipifarnib]
Method in brief: as §1

[5] = compound: NC1(c2ccc(-c3nc4ccn5c(=O)[nH]nc5c4cc3-c3ccccc3)cc2)CCC1
Method in brief: as §1

crizotinib = compound: C[C@@H](Oc1cc(-c2cnn(C3CCNCC3)c2)cnc1N)c1c(Cl)ccc(F)c1Cl [crizotinib]
Method in brief: as §1

tozasertib = compound: Cc1cc(Nc2cc(N3CCN(C)CC3)nc(Sc3ccc(NC(=O)C4CC4)cc3)n2)n[nH]1 [tozasertib]
Method in brief: as §1

doramapimod = compound: Cc1ccc(-n2nc(C(C)(C)C)cc2NC(=O)Nc2ccc(OCCN3CCOCC3)c3ccccc23)cc1 [doramapimod]
Method in brief: as §1

quisinostat = compound: Cn1cc(CNCC2CCN(c3ncc(C(=O)NO)cn3)CC2)c2ccccc21 [quisinostat]
Method in brief: as §1

[6] = compound: NC(=O)Nc1cc(-c2cccc(F)c2)sc1C(=O)N[C@H]1CCCNC1
Method in brief: as §1

pictilisib = compound: CS(=O)(=O)N1CCN(Cc2cc3nc(-c4cccc5[nH]ncc45)nc(N4CCOCC4)c3s2)CC1 [pictilisib]
Method in brief: as §1

duvelisib = compound: C[C@H](Nc1ncnc2nc[nH]c12)c1cc2cccc(Cl)c2c(=O)n1-c1ccccc1 [duvelisib]
Method in brief: as §1

bafetinib = compound: Cc1ccc(NC(=O)c2ccc(CN3CC[C@H](N(C)C)C3)c(C(F)(F)F)c2)cc1Nc1nccc(-c2cncnc2)n1 [bafetinib]
Method in brief: as §1

dasatinib = compound: Cc1nc(Nc2ncc(C(=O)Nc3c(C)cccc3Cl)s2)cc(N2CCN(CCO)CC2)n1 [dasatinib]
Method in brief: as §1

[7] = compound: Cn1cc(-c2ccc3c(c2)CCN3C(=O)Cc2cccc(C(F)(F)F)c2)c2c(N)ncnc21
Method in brief: as §1

Measured: log2 fold change

CCDC88A isoform 2 (UniProt Q3V6T2)
inactive: [1] -0.202 | gandotinib -0.025 | [2] 0.041 | nilotinib -0.304 | [3] 0.095 | [4] 0.057 | tipifarnib 0.028

CCDC43 isoform 2 (UniProt Q96MW1)
inactive: [5] 0.147

CD68 (UniProt P34810)
inactive: crizotinib -0.076 | [1] -0.287 | gandotinib -0.022 | tozasertib 0.057 | doramapimod -0.229 | [2] 0.08 | quisinostat 0.118 | [6] 0.038 | [5] 0.082

CCDC144A (UniProt A2RUR9)
inactive: pictilisib -0.084 | crizotinib 0.023 | duvelisib -0.141 | tozasertib -0.093 | doramapimod 0.134 | bafetinib -0.287 | dasatinib -0.152 | [7] 0.036 | quisinostat -0.064 | [6] 0.047 | [5] -0.166

CCP110 (UniProt O43303)
inactive: pictilisib -0.085 | crizotinib -0.006 | duvelisib 0.084 | tozasertib -0.009 | doramapimod 0.009 | bafetinib -0.053 | dasatinib 0.063 | [7] -0.01 | quisinostat -0.062 | [6] 0.107 | [5] 0.055

CCDC102A (UniProt Q96A19)
inactive: pictilisib -0.082 | crizotinib -0.122 | tozasertib -0.034 | doramapimod 0.085 | bafetinib -0.165 | quisinostat -0.008 | [6] -0.097 | [5] 0.089

CASP10 isoform 2 (UniProt Q92851)
inactive: duvelisib -0.02 | tozasertib 0.004 | dasatinib 0.069 | [7] 0.106

CASS4 (UniProt Q9NQ75)
inactive: crizotinib -0.048 | [1] -0.112 | duvelisib -0.047 | gandotinib 0.053 | tozasertib 0.004 | doramapimod -0.173 | [2] -0.073 | nilotinib 0.008 | [3] 0.116 | dasatinib -0.097 | [4] 0.128 | [7] -0.075 | quisinostat -0.164 | tipifarnib -0.059 | [6] 0.181 | [5] -0.127

Retrieved one by one from the entries so far, 2 records:
CCDC102A (UniProt Q96A19)
inactive: pictilisib -0.082 | crizotinib -0.122 | tozasertib -0.034 | doramapimod 0.085 | bafetinib -0.165 | quisinostat -0.008 | [6] -0.097 | [5] 0.089

CASP10 isoform 2 (UniProt Q92851)
inactive: duvelisib -0.02 | tozasertib 0.004 | dasatinib 0.069 | [7] 0.106

Continued.

CCDC136 isoform 4 (UniProt Q96JN2)
inactive: crizotinib -0.101 | [1] -0.065 | duvelisib 0.056 | gandotinib -0.157 | tozasertib -0.029 | doramapimod 0.123 | [2] 0.099 | dasatinib 0.153 | [7] 0.037 | quisinostat 0.049 | [6] 0.021 | [5] -0.047

CCDC126 (UniProt Q96EE4)
inactive: crizotinib -0.078 | doramapimod 0.156 | quisinostat -0.115 | [6] -0.014 | [5] -0.057

CD109 (UniProt Q6YHK3)
inactive: [1] 0.322 | gandotinib 0.331 | [2] 0.143

CD79B isoform 3 (UniProt P40259)
inactive: duvelisib 0.3 | dasatinib -1.6 | [7] -0.002

CCDC18 (UniProt Q5T9S5)
inactive: crizotinib -0.17 | [1] -0.209 | duvelisib 0.047 | gandotinib 0.297 | tozasertib 0.139 | doramapimod 0.021 | [2] 0.299 | nilotinib 0.121 | [3] -0.079 | dasatinib -0.041 | [4] 0.258 | [7] -0.037 | quisinostat -0.246 | tipifarnib -0.102 | [6] 0.045

CCDC167 (UniProt Q9P0B6)
inactive: pictilisib 0.113 | crizotinib -0.024 | doramapimod -0.01 | bafetinib 0.007 | nilotinib -0.014 | [3] -0.024 | [4] 0.131 | quisinostat -0.05 | tipifarnib -0.062 | [6] 0.131 | [5] -0.065

CASP8 isoform 4 (UniProt Q14790)
inactive: pictilisib -0.099 | duvelisib -0.054 | bafetinib 0.01 | dasatinib -0.141 | [7] -0.201

CASC1 (UniProt Q6TDU7)
inactive: pictilisib -0.06 | [1] -0.175 | gandotinib 0.058 | bafetinib 0.953 | [2] 0.095

CD69 (UniProt Q07108)
inactive: crizotinib -0.037 | doramapimod 0.099 | quisinostat -0.059 | [6] 0.073

CCT8 (UniProt H7C4C8)
inactive: crizotinib -0.084 | doramapimod 0.192 | nilotinib -0.18 | [3] 0.177 | [4] 0.255 | quisinostat -0.013 | tipifarnib 0.171 | [6] -0.001

CBX3 (UniProt B8ZZ43)
inactive: crizotinib 0.152 | [1] -0.025 | gandotinib 0.18 | doramapimod -0.011 | [2] -0.197 | nilotinib 0.064 | [3] -0.102 | [4] -0.178 | quisinostat 0.005 | tipifarnib 0.327 | [6] -0.063

CCRL2 isoform 2 (UniProt O00421)
inactive: pictilisib -0.041 | bafetinib -0.105 | nilotinib 0.164 | [3] -0.141 | [4] -0.069 | tipifarnib -0.076 | [5] -0.152

CCDC152 (UniProt Q4G0S7)
inactive: crizotinib -0.031 | duvelisib 0.034 | doramapimod -0.103 | dasatinib -0.036 | [7] 0.066 | quisinostat -0.012 | [6] -0.052 | [5] 0.353

CD44 (UniProt P16070)
inactive: [1] 0.032 | gandotinib -0.044 | tozasertib 0.364 | [2] -0.046 | nilotinib 0.058 | [3] 0.005 | [4] 0.102 | tipifarnib -0.079 | [5] 0.087

CCDC138 (UniProt Q96M89)
inactive: nilotinib 0.034 | [3] 0.03 | [4] -0.036 | tipifarnib -0.01

CD46 (UniProt P15529)
inactive: crizotinib 0.037 | doramapimod -0.038 | quisinostat -0.021 | [6] 0.09 | [5] 0.011

CD164 (UniProt Q04900)
inactive: crizotinib -0.133 | doramapimod -0.106 | quisinostat -0.459 | [6] 0.085 | [5] 0.189

CCDC8 (UniProt Q9H0W5)
inactive: duvelisib 0.268 | nilotinib 0.066 | [3] -0.138 | dasatinib 0.025 | [4] 0.058 | [7] -0.033 | tipifarnib -0.349

CD276 (UniProt Q5ZPR3)
inactive: [1] -0.08 | gandotinib -0.338 | [2] -0.086 | [5] -0.109

CASTOR1 (UniProt Q8WTX7)
inactive: crizotinib 0.066 | doramapimod -0.102 | quisinostat -0.188 | [6] 0.227
